This note sets out measurements from publication PMC7125355 (Translational Oncology, 2020).

pIC50: −log10 of the molar value.

What all share (experiment): cells
Common to all, as to parameters: species or system Ba/F3 stable lines
What all share (settings): Mus musculus, BaF3, 72 h, read-out: Midostaurin / (PKC412)

Experiment [1] concerns BaF3-FLT3-ITD-G697R.
Experiment [2] relates to BaF3-FLT3-ITD-D835V.
Experiment [3] has as its system BaF3-FLT3-ITD-D835I.
Experiment [4] has as its system BaF3-tel-FLT3-D835Y.
The subject of experiment [5] is BaF3-FLT3-MOLM-ITD.
The subject of experiment [6] is BaF3-FLT3-ITD-D835N.
The subject of experiment [7] is BaF3-FLT3-D835H.
Experiment [8] concerns BaF3-FLT3-ITD-F691I.
Experiment [9] deals with BaF3-FLT3-D835V.
Experiment [10] has as its system BaF3-tel-FLT3-K663Q.
Experiment [11] concerns BaF3-FLT3-ITD-D835Y.
Experiment [12] deals with BaF3-tel-FLT3.

For `CO[C@@H]1[C@H](N(C)C(=O)c2ccccc2)C[C@H]2O[C@]1(C)n1c3ccccc3c3c4c(c5c6ccccc6n2c5c31)C(=O)NC4` [Midostaurin], the pIC50 in [1] was 6.93; in experiment [2], 8.42; in experiment [3] it was 8.46; in experiment [4], 9.00; in experiment [5], 8.40; in experiment [6], 8.19. Besides, the pIC50 in experiment [7] is 8.18; in experiment [8], 7.38; in [9] it was 8.48; in experiment [10], 6.99; in experiment [11], 8.19; in [12] it was 7.84.
